The experiment addresses His-tagged PSMA (PSMA-His6), soluble ectodomain of prostate-specific membrane antigen (human) (UniProt Q04609). Put plainly: AlphaScreen or HTRF; competition: 563-biotin on streptavidin donor beads, PSMA-His6 on nickel chelate acceptor beads, unlabeled peptide at various concentrations; ambient temperature; 25 mM HEPES, 100 mM NaCl, pH 7.4; IC50 used to approximate KD; both purified.

By UniProt entry, the sequences of proteins in these tests, tags left out. Residues count along the entry.
UniProt Q04609, residues 44-750: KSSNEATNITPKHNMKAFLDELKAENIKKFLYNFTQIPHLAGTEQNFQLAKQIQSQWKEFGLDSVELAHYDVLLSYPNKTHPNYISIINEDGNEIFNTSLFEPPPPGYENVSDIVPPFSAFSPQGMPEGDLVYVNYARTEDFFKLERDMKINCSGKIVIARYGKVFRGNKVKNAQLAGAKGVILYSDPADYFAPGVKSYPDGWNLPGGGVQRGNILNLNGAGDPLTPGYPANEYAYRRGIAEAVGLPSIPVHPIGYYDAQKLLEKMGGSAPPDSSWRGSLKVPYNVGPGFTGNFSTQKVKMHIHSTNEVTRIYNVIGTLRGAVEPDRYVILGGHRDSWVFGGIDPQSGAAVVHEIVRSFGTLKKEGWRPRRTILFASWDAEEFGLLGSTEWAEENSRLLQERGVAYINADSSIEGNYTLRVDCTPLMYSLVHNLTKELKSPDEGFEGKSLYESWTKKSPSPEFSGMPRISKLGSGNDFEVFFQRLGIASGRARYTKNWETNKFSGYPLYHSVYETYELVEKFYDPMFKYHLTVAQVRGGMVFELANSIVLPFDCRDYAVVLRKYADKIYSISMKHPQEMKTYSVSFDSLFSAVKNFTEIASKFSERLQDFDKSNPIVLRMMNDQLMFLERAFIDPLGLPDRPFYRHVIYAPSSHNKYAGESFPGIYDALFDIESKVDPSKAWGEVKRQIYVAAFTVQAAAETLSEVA

From article PMC3723849, “Evaluation of Phage Display Discovered Peptides as Ligands for Prostate-Specific Membrane Antigen (PSMA)” (PLoS ONE, 2013) come the findings set out here.

No constants are given. Whether binding was seen depends on the method and setting.

B1: Peptide 565 (peptide)
peptide: ARMFLLFLMRCIGCY
modifications: Cys(Acm)
B1: the binding result is “no binding (tested: 4.83 µM)”.
